This is an account of results in US20240168008A1, “Methods of Breath-Based PFAS Exposure Assessment, and Systems for Practicing the Same” (priority 2022, published 2024).

The nature of this data set: Detection of PFAS in synthetic breath samples (headspace device, SuperSESI-X, Exploris 120 HRMS). Set-up: species or system human.
Where [1] appears, read: Breath 1 + PFAS-mix, low concentration PFAS mixture in headspace device.
Setting [2] is: Breath 2 + PFAS-mix, low concentration PFAS mixture in headspace device.
The mark [3] stands for this setting: Breath 3 + PFAS-mix, low concentration PFAS mixture in headspace device.
Setting [4] is: Breath 4 + PFAS-mix, low concentration PFAS mixture in headspace device.
The mark [5] stands for this setting: Breath 5 + PFAS-mix, low concentration PFAS mixture in headspace device.
Where [6] appears, read: Breath 11 + PFAS-mix, relatively higher concentration PFAS mixture in headspace device.
Setting [7] is: Breath 12 + PFAS-mix, relatively higher concentration PFAS mixture in headspace device.
Where [8] appears, read: Breath 13 + PFAS-mix, relatively higher concentration PFAS mixture in headspace device.
Setting [9] is: Breath 14 + PFAS-mix, relatively higher concentration PFAS mixture in headspace device.
[10] abbreviates: Breath 15 + PFAS-mix, relatively higher concentration PFAS mixture in headspace device.

Structures are written as SMILES.

With `CCN(CC(=O)O)S(=O)(=O)C(F)(F)C(F)(F)C(F)(F)C(F)(F)C(F)(F)C(F)(F)C(F)(F)C(F)(F)F` [N-EtFOSAA, 2-(N-Ethylperfluorooctanesulfonamido) acetic acid], the “PFAS level in synthetic breath” value under setting [1] is listed as 9150; the “PFAS level in synthetic breath” value under setting [2] is on record as 9330; the “PFAS level in synthetic breath” value under setting [3] is 9360; the “PFAS level in synthetic breath” value under setting [4] was 8260; the “PFAS level in synthetic breath” value under setting [5] was 6890; the “PFAS level in synthetic breath” value under setting [6] is listed as 12500. Besides, the “PFAS level in synthetic breath” value reads like this: under setting [7], 16300; under setting [8], 15700; under setting [9], 26500; under setting [10], 21200.

Take `O=C(O)C(F)(F)C(F)(F)C(F)(F)F` [PFBA, Perfluorobutanoic acid]: the “PFAS level in synthetic breath” value under setting [1] amounted to 9760; the “PFAS level in synthetic breath” value under setting [2] is given as 5400; the “PFAS level in synthetic breath” value under setting [3] is listed as 189000; the “PFAS level in synthetic breath” value under setting [4] turned out to be 174500; the “PFAS level in synthetic breath” value under setting [5] came out at 156000; the “PFAS level in synthetic breath” value under setting [6] worked out at 195000. Besides, the “PFAS level in synthetic breath” value is 234000 under setting [7], 213000 under setting [8], 240000 under setting [9] and 247000 under setting [10].

For `O=C(O)C(F)(F)C(F)(F)C(F)(F)C(F)(F)C(F)(F)C(F)(F)C(F)(F)C(F)(F)C(F)(F)F` [PFDA, Perfluorodecanoic acid], the “PFAS level in synthetic breath” value under setting [1] was determined as 602000; the “PFAS level in synthetic breath” value under setting [2] worked out at 594000; the “PFAS level in synthetic breath” value under setting [3] is 547000; the “PFAS level in synthetic breath” value under setting [4] came out at 432000; the “PFAS level in synthetic breath” value under setting [5] worked out at 399000; the “PFAS level in synthetic breath” value under setting [6] was 840000. Moreover, the “PFAS level in synthetic breath” value reads like this: under setting [7], 862000; under setting [8], 1120000; under setting [9], 1360000; under setting [10], 1100000.

On to `O=C(O)C(F)(F)C(F)(F)C(F)(F)C(F)(F)C(F)(F)C(F)(F)C(F)(F)C(F)(F)C(F)(F)C(F)(F)C(F)(F)F` [PFDoDA, Perfluorododecanoic], for which the “PFAS level in synthetic breath” value under setting [1] worked out at 171000; the “PFAS level in synthetic breath” value under setting [2] is reported as 168000; the “PFAS level in synthetic breath” value under setting [3] is reported as 159000; the “PFAS level in synthetic breath” value under setting [4] is 135000; the “PFAS level in synthetic breath” value under setting [5] is 119000; the “PFAS level in synthetic breath” value under setting [6] is recorded as 345000. In addition, the “PFAS level in synthetic breath” value was found to be 310000 under setting [7], 384000 under setting [8], 448000 under setting [9] and 387000 under setting [10].

Turning to `O=C(O)C(F)(F)C(F)(F)C(F)(F)C(F)(F)C(F)(F)C(F)(F)F` [PFHpA, Perfluoroheptanoic acid], the “PFAS level in synthetic breath” value was determined as 491000 under setting [1]; 331000 under setting [2]; 275000 under setting [3]; 188000 under setting [4]; 204000 under setting [5]; 542000 under setting [6]. Moreover, the “PFAS level in synthetic breath” value under setting [7] is reported as 777000, the “PFAS level in synthetic breath” value under setting [8] was found to be 738000, the “PFAS level in synthetic breath” value under setting [9] worked out at 741000 and the “PFAS level in synthetic breath” value under setting [10] came out at 1010000.

For the molecule `O=C(O)C(F)(F)C(F)(F)C(F)(F)C(F)(F)C(F)(F)F` [PFHxA, Perfluorohexanoic Acid], the “PFAS level in synthetic breath” value reads like this: under setting [1], 233000; under setting [2], 649000; under setting [3], 645000; under setting [4], 599000; under setting [5], 743000; under setting [6], 882000. Moreover, the “PFAS level in synthetic breath” value under setting [7] was found to be 983000, the “PFAS level in synthetic breath” value under setting [8] was determined as 721000, the “PFAS level in synthetic breath” value under setting [9] turned out to be 797000 and the “PFAS level in synthetic breath” value under setting [10] worked out at 745000.

In the case of `O=C(O)C(F)(F)C(F)(F)C(F)(F)C(F)(F)C(F)(F)C(F)(F)C(F)(F)C(F)(F)F` [PFNA, Perfluorononanoic acid], the “PFAS level in synthetic breath” value by setting is: under setting [1], 665000; under setting [2], 635000; under setting [3], 597000; under setting [4], 501000; under setting [5], 357000; under setting [6], 884000. Also, the “PFAS level in synthetic breath” value under setting [7] worked out at 967000, the “PFAS level in synthetic breath” value under setting [8] amounted to 1140000, the “PFAS level in synthetic breath” value under setting [9] is 1390000 and the “PFAS level in synthetic breath” value under setting [10] amounted to 1110000.

As to `O=C(O)C(F)(F)C(F)(F)C(F)(F)C(F)(F)C(F)(F)C(F)(F)C(F)(F)F` [PFOA, Perfluorooctanoic Acid], the “PFAS level in synthetic breath” value under setting [1] stood at 598000; the “PFAS level in synthetic breath” value under setting [2] is reported as 501000; the “PFAS level in synthetic breath” value under setting [3] turned out to be 434000; the “PFAS level in synthetic breath” value under setting [4] amounted to 328000; the “PFAS level in synthetic breath” value under setting [5] is 308000; the “PFAS level in synthetic breath” value under setting [6] turned out to be 618000. Also, the “PFAS level in synthetic breath” value was found to be 816000 under setting [7], 989000 under setting [8], 1190000 under setting [9] and 1160000 under setting [10].

Take `O=S(=O)(O)C(F)(F)C(F)(F)C(F)(F)C(F)(F)C(F)(F)C(F)(F)C(F)(F)C(F)(F)F` [PFOS, Perfluorooctanesulfonic acid]: the “PFAS level in synthetic breath” value is, setting by setting: under setting [1], 2.11E+05; under setting [2], 208000; under setting [3], 200000; under setting [4], 176000; under setting [5], 140000; under setting [6], 1790000. For the same molecule, the “PFAS level in synthetic breath” value was determined as 1610000 under setting [7], 1630000 under setting [8], 2080000 under setting [9] and 1710000 under setting [10].

Take `NS(=O)(=O)C(F)(F)C(F)(F)C(F)(F)C(F)(F)C(F)(F)C(F)(F)C(F)(F)C(F)(F)F` [PFOSA, Perfluorooctanesulfonamide]: the “PFAS level in synthetic breath” value is, setting by setting: under setting [1], 2.04E+06; under setting [2], 2.04E+06; under setting [3], 1950000; under setting [4], 1810000; under setting [5], 1470000; under setting [6], 15300000. The “PFAS level in synthetic breath” value runs as follows: under setting [7], 15400000; under setting [8], 13600000; under setting [9], 19500000; under setting [10], 16100000.

`O=C(O)C(F)(F)C(F)(F)C(F)(F)C(F)(F)F` [PFPeA, Perfluoropentanoic Acid]: the “PFAS level in synthetic breath” value under setting [1] is recorded as 42500; the “PFAS level in synthetic breath” value under setting [2] was found to be 25900; the “PFAS level in synthetic breath” value under setting [3] is listed as 16000; the “PFAS level in synthetic breath” value under setting [4] is listed as 11600; the “PFAS level in synthetic breath” value under setting [5] was found to be 11400; the “PFAS level in synthetic breath” value under setting [6] is recorded as 94800. In addition, the “PFAS level in synthetic breath” value by setting is: under setting [7], 122000; under setting [8], 121000; under setting [9], 115000; under setting [10], 111000.

On to `O=C(O)C(F)(F)C(F)(F)C(F)(F)C(F)(F)C(F)(F)C(F)(F)C(F)(F)C(F)(F)C(F)(F)C(F)(F)C(F)(F)C(F)(F)C(F)(F)F` [PFTeDA, Perfluorotetradecanoic acid], for which the “PFAS level in synthetic breath” value is, setting by setting: under setting [1], 42100; under setting [2], 36400; under setting [3], 35500; under setting [4], 28600; under setting [5], 19400; under setting [6], 150000. Besides, the “PFAS level in synthetic breath” value runs as follows: under setting [7], 139000; under setting [8], 185000; under setting [9], 222000; under setting [10], 160000.

For the molecule `O=C(O)C(F)(F)C(F)(F)C(F)(F)C(F)(F)C(F)(F)C(F)(F)C(F)(F)C(F)(F)C(F)(F)C(F)(F)C(F)(F)C(F)(F)F` [PFTrDA, Perfluorotridecanoic acid], the “PFAS level in synthetic breath” value under setting [1] turned out to be 99400; the “PFAS level in synthetic breath” value under setting [2] came out at 98800; the “PFAS level in synthetic breath” value under setting [3] is 93300; the “PFAS level in synthetic breath” value under setting [4] was determined as 76900; the “PFAS level in synthetic breath” value under setting [5] is 51600; the “PFAS level in synthetic breath” value under setting [6] was 236000. In addition, the “PFAS level in synthetic breath” value under setting [7] was found to be 218000, the “PFAS level in synthetic breath” value under setting [8] is listed as 274000, the “PFAS level in synthetic breath” value under setting [9] was found to be 341000 and the “PFAS level in synthetic breath” value under setting [10] amounted to 255000.

Turning to `O=C(O)C(F)(F)C(F)(F)C(F)(F)C(F)(F)C(F)(F)C(F)(F)C(F)(F)C(F)(F)C(F)(F)C(F)(F)F` [PFUnDA, Perfluoroundecanoic acid], the “PFAS level in synthetic breath” value under setting [1] amounted to 320000; the “PFAS level in synthetic breath” value under setting [2] came out at 309000; the “PFAS level in synthetic breath” value under setting [3] is reported as 300000; the “PFAS level in synthetic breath” value under setting [4] came out at 232000; the “PFAS level in synthetic breath” value under setting [5] came out at 244000; the “PFAS level in synthetic breath” value under setting [6] stood at 420000. Further, the “PFAS level in synthetic breath” value amounted to 480000 under setting [7], 649000 under setting [8], 708000 under setting [9] and 628000 under setting [10].
